Consider one substance from patent US20100028331A1.

Amino acid sequences for entries named in this document (tags omitted). A change or cut given only in a name is not applied to a line headed by its entry.
UniProt P27037: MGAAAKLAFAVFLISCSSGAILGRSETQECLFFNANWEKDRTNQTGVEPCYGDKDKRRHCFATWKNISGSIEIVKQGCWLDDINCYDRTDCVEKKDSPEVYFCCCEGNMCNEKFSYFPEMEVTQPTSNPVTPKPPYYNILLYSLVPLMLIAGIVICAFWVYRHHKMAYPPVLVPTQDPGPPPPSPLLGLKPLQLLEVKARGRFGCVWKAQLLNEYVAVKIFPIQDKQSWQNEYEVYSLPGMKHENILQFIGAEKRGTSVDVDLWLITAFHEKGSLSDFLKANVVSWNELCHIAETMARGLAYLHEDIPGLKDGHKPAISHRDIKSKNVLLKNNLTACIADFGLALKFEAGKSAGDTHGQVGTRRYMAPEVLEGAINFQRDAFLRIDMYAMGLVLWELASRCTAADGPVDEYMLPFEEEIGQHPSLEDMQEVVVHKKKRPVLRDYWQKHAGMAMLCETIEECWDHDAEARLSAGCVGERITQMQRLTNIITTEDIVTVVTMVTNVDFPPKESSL

These are yes or no findings as the source states them, for the method shown. Some results given as binding are weak or reduced against the parent protein; the word gives no strength.

This experiment addresses T1, GDF-11 (UniProt O95390).
T1 sequence (looked up): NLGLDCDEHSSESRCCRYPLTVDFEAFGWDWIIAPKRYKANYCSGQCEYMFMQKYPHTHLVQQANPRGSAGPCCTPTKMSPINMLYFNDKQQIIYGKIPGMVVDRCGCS
Kind of experiment: Biacore SPR; GDF-11 amine-coupled on CM5 chip.

For “ActRIIa-mFc (from UniProt P27037 21-135) (Fc fusion)”, the binding result was “binds”.
